Measured data: PubChem BioAssay AID652243 (Drosophila RNAi Screening Center, 2013)
The deposit covers about 24,000 reagents; below is a random part of those with a known target gene and a result. Over the whole deposit, 246 (1%) got an active call. 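Plates not normalised; calls are printed but the firefly/Renilla ratio behind them is not deposited; fold cut for lowering reported inconsistently.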 Raw values are not corrected between plates. Unmarked entries are inactive. The numbers tell different reagents against one gene apart. The record does not give: the amount of reagent.

- Aim: 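Fly regulators of androgen-dependent reporter output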 (primary screen)
- Cells: Drosophila S2R+ cells
- Knock-down reagent: long dsRNA against Drosophila genes
- Time to read-out: 72 h (48 h, then 24 h hormone)
- Treatment: synthetic androgen R1881 at 10 nM for 24 h
- Measurement: 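Per-well raw luminescence of the androgen-driven firefly reporter and of the Renilla control, two replicates each, without normalisation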
- Scale: firefly reporter light: higher = more light from androgen-responsive reporter; Renilla control light: higher = more constitutive control signal (cell number, transfection)
- Active means: 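Hit when the log firefly-to-Renilla ratio dropped or increased by a fixed fold versus the mean of GFP or LacZ controls across duplicate plates; lowering cut given as 1.5 and as 3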
- Calls: active = hit: reporter lowered or raised; inactive = no hit

spri (sprint) #1
- firefly reporter light, replicate 1: 3.52e5
- firefly reporter light, replicate 2: 3.60e5
- Renilla control light, replicate 1: 4.05e6
- Renilla control light, replicate 2: 2.84e6

spri (sprint) #2
- firefly reporter light, replicate 1: 3.06e5
- firefly reporter light, replicate 2: 3.25e5
- Renilla control light, replicate 1: 3.84e6
- Renilla control light, replicate 2: 2.64e6

spri (sprint) #3
- firefly reporter light, replicate 1: 4.38e5
- firefly reporter light, replicate 2: 4.59e5
- Renilla control light, replicate 1: 2.75e6
- Renilla control light, replicate 2: 2.72e6

spri (sprint) #4
- firefly reporter light, replicate 1: 3.28e5
- firefly reporter light, replicate 2: 3.57e5
- Renilla control light, replicate 1: 3.24e6
- Renilla control light, replicate 2: 3.18e6

spri (sprint) #5
- firefly reporter light, replicate 1: 6.31e5
- firefly reporter light, replicate 2: 9.33e5
- Renilla control light, replicate 1: 1.18e6
- Renilla control light, replicate 2: 2.08e6

spri (sprint) #6
- firefly reporter light, replicate 1: 9.19e5
- firefly reporter light, replicate 2: 7.60e5
- Renilla control light, replicate 1: 1.05e6
- Renilla control light, replicate 2: 1.13e6

CG10185
- firefly reporter light, replicate 1: 1.80e5
- firefly reporter light, replicate 2: 2.02e5
- Renilla control light, replicate 1: 2.44e6
- Renilla control light, replicate 2: 2.34e6

CG33308
- firefly reporter light, replicate 1: 2.12e5
- firefly reporter light, replicate 2: 1.80e5
- Renilla control light, replicate 1: 4.26e5
- Renilla control light, replicate 2: 7.90e5

CG3740
- firefly reporter light, replicate 1: 3.28e5
- firefly reporter light, replicate 2: 2.50e5
- Renilla control light, replicate 1: 2.75e6
- Renilla control light, replicate 2: 2.84e6

CG32806 #1
- firefly reporter light, replicate 1: 8.91e5
- firefly reporter light, replicate 2: 8.73e5
- Renilla control light, replicate 1: 2.66e6
- Renilla control light, replicate 2: 2.35e6

CG32806 #2
- firefly reporter light, replicate 1: 3.53e5
- firefly reporter light, replicate 2: 5.16e5
- Renilla control light, replicate 1: 8.32e5
- Renilla control light, replicate 2: 1.44e6

CG32806 #3
- firefly reporter light, replicate 1: 7.81e5
- firefly reporter light, replicate 2: 3.81e5
- Renilla control light, replicate 1: 1.65e6
- Renilla control light, replicate 2: 1.11e6

CG32815 #1
- firefly reporter light, replicate 1: 2.98e5
- firefly reporter light, replicate 2: 3.28e5
- Renilla control light, replicate 1: 3.01e6
- Renilla control light, replicate 2: 3.11e6

CG32815 #2
- firefly reporter light, replicate 1: 2.58e5
- firefly reporter light, replicate 2: 3.59e5
- Renilla control light, replicate 1: 3.11e6
- Renilla control light, replicate 2: 2.90e6

HHEX (Hematopoietically expressed homeobox) #1
- firefly reporter light, replicate 1: 46915 (active)
- firefly reporter light, replicate 2: 61316
- Renilla control light, replicate 1: 9.75e5
- Renilla control light, replicate 2: 1.37e6

HHEX (Hematopoietically expressed homeobox) #2
- firefly reporter light, replicate 1: 6.90e5
- firefly reporter light, replicate 2: 6.91e5
- Renilla control light, replicate 1: 1.21e6
- Renilla control light, replicate 2: 1.37e6

nom (numerous disordered muscles) #1
- firefly reporter light, replicate 1: 99854
- firefly reporter light, replicate 2: 98947
- Renilla control light, replicate 1: 2.01e6
- Renilla control light, replicate 2: 1.64e6

nom (numerous disordered muscles) #2
- firefly reporter light, replicate 1: 3.02e5
- firefly reporter light, replicate 2: 2.75e5
- Renilla control light, replicate 1: 7.66e5
- Renilla control light, replicate 2: 6.53e5

CG34175
- firefly reporter light, replicate 1: 1.04e5
- firefly reporter light, replicate 2: 69038
- Renilla control light, replicate 1: 1.07e6
- Renilla control light, replicate 2: 7.98e5

Alg13 (Alg13 UDP-N-acetylglucosaminyltransferase subunit) #1
- firefly reporter light, replicate 1: 6.91e5
- firefly reporter light, replicate 2: 1.10e6
- Renilla control light, replicate 1: 4.94e5
- Renilla control light, replicate 2: 8.37e5

Alg13 (Alg13 UDP-N-acetylglucosaminyltransferase subunit) #2
- firefly reporter light, replicate 1: 9.73e5
- firefly reporter light, replicate 2: 8.14e5
- Renilla control light, replicate 1: 2.05e6
- Renilla control light, replicate 2: 1.36e6
